These are yes or no findings as the source states them, for the method shown. In cells and extracts the contact can be indirect. Some binding calls cover weakened binding; strength is not graded here.
T1: Jumonji domain containing 2A (JMJD2A) (human (endogenous in MDA-MB-231)) (UniProt O75164)
T1 sequence: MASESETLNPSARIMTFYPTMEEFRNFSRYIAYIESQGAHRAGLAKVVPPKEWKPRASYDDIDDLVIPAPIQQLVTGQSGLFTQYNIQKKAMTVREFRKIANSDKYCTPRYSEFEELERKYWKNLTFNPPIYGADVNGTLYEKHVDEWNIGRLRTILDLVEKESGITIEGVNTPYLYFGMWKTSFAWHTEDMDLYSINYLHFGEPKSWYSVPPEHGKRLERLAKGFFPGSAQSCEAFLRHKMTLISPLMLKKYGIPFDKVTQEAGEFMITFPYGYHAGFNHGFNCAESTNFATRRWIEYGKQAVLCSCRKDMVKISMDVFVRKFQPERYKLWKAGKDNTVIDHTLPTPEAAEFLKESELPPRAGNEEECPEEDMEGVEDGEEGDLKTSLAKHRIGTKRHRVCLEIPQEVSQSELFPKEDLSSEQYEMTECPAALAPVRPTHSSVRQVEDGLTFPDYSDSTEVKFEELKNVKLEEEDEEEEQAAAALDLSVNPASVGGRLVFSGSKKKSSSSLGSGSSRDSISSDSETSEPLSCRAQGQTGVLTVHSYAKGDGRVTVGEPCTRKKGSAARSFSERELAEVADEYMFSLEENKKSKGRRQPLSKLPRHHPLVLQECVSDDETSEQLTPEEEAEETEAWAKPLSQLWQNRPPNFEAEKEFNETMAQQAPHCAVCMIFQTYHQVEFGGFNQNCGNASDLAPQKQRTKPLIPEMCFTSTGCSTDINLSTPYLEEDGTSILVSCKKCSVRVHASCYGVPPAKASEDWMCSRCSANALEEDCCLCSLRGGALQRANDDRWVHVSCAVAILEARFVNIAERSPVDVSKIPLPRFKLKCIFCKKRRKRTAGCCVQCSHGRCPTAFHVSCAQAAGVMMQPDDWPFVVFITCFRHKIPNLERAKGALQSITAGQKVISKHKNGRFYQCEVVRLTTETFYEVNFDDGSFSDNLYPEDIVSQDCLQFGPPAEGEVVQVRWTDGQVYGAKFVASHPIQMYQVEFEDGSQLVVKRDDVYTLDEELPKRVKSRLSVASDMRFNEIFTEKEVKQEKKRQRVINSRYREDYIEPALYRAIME

Amino acid sequences for entries named in this document (tags omitted).
UniProt Q01094: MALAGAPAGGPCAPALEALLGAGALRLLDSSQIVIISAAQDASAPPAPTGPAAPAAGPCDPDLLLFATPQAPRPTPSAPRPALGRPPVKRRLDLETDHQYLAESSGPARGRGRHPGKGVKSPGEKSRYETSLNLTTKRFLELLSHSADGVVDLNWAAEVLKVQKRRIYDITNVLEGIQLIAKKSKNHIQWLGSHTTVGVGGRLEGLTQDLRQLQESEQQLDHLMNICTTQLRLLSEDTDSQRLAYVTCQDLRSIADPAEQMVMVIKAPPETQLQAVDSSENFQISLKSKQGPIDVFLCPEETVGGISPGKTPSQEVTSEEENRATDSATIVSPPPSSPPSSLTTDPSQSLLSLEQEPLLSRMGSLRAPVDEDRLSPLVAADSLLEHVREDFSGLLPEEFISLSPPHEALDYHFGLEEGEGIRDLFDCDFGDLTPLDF
UniProt Q16254: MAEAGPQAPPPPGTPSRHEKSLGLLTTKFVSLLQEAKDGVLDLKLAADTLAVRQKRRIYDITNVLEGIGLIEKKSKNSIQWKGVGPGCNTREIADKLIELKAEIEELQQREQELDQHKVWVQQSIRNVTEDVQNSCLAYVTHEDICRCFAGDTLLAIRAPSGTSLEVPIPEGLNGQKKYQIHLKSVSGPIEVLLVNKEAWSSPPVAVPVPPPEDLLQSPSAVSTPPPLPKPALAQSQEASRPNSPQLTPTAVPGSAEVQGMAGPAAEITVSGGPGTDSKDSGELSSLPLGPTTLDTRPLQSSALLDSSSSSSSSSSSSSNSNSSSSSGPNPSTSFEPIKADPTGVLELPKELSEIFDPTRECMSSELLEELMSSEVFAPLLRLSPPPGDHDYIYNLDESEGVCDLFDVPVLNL
UniProt Q13547: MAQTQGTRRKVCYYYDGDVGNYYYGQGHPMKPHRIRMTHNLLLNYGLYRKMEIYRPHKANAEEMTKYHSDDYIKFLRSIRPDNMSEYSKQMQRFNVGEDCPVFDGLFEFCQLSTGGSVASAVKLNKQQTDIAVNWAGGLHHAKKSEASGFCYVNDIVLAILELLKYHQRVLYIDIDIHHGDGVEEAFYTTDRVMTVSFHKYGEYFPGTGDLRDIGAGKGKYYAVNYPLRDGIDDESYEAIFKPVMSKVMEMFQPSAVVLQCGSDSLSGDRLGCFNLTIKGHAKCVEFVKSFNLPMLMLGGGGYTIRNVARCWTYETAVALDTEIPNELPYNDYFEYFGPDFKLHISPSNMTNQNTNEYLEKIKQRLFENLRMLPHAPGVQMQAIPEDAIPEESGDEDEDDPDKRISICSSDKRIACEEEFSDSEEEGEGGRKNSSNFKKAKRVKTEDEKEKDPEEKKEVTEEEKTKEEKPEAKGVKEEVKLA
UniProt O15379: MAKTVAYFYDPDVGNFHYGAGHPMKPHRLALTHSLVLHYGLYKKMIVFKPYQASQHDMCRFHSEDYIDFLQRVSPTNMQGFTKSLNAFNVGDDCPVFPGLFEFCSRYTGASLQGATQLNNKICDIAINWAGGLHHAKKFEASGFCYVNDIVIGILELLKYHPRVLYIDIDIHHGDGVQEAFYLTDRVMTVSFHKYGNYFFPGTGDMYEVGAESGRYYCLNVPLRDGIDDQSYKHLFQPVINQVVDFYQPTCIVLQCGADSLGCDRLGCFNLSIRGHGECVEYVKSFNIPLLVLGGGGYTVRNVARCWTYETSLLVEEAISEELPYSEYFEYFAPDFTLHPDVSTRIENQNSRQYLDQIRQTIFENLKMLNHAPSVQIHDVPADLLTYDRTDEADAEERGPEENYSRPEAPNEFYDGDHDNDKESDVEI

B1: Jumonji domain containing 2A (JMJD2A) (protein, UniProt O75164-1 1-1064)
chain: T1 sequence

Legend:
Experiment in all cases: co-IP; MDA-MB-231 cell lysates in NP-40 lysis buffer; specific antibodies with protein G agarose beads; western blot; rabbit normal IgG as negative control
[1] = biological target: T1, Jumonji domain containing 2A (JMJD2A) (human (endogenous in MDA-MB-231))
[2] = biological target: E2F1 (human (endogenous in MDA-MB-231)) (UniProt Q01094)
[3] = biological target: E2F4 (human (endogenous in MDA-MB-231)) (UniProt Q16254)

Molecule	binding [1]	binding [2]	binding [3]
E2F4 (from UniProt Q16254 1-413)	binds		
histone deacetylase (HDAC)1 (from UniProt Q13547 1-482)	binds		
histone deacetylase (HDAC)3 (from UniProt O15379 1-428)	binds		
B1		binds	binds

Reference: PMC4077733
